{"sequences": {"note": "The chains behind the UniProt entries cited, without tags or fusion partners. Residues count along the entry.", "UniProt P95493, residues 577-736": "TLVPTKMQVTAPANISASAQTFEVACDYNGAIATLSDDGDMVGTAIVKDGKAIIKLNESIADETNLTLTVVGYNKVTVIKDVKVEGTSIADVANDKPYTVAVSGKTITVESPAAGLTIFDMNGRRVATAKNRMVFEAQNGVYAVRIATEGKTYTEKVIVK"}, "source": "paper PMC4804311", "biological_target": "wild-type recombinant IgSF-CTD tandem of gingipain B (RgpB) (Porphyromonas gingivalis W83) (UniProt P95493)", "assay": "SAXS; SEC fractions diluted to 1.5 mg/mL and a concentration series down to 10% of it, in gel filtration buffer; molecular weight from I(0) and shape reconstructions; both purified", "note": "No constants are given. Whether binding was seen depends on the method and setting."}
{"substance": "wild-type recombinant IgSF-CTD tandem of gingipain B (RgpB) (from UniProt P95493 577-736) (domain or fragment)", "values": [{"measurement": "binding", "value": "no binding (tested: 1.5 mg/mL)"}]}
